Laboratory results: PubChem BioAssay AID1259424 (University of Nebraska Medical Center, 2018)
Shown is an unselected part of about 14,000 deposited reagents. 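Higher correlation or smaller distance means closer resemblance to KSR1 loss; control wells, including KSR1 knockdowns, recur on many plates.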 Reagent sequences are not shown. Not given: the time to read-out.

Screen: 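Seek colon cancer survival genes behaving like KSR1, using a six-gene signature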 (primary screen)
System: human HCT116 colon cancer cells
Knock-down reagent: siRNA pool against human genes, 50 nM
Measurement: 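Log2 levels of six mRNAs (branched-DNA multiplex), adjusted by two reference genes and the non-targeting median, then scored against the average KSR1 knockdown pattern as Pearson r and euclidean distance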
Scale: mean correlation with KSR1 profile and KSR1 correlation: higher = expression change more like KSR1 knockdown; mean distance from KSR1 profile: higher = expression change less like KSR1 knockdown

no.	gene	mean correlation with KSR1 profile	mean distance from KSR1 profile	KSR1 correlation, replicate 1	KSR1 correlation, replicate 2	KSR1 correlation, replicate 3
1	DUSP1 (dual specificity phosphatase 1)	0.0804	3.21	0.263	0.0812	-0.244
2	ENO1 (enolase 1)	-0.0504	1.12	0.345	-0.485	0.0814
3	H2AC4 (H2A clustered histone 4)	-0.422	3.31	-0.383	-0.418	-0.382
4	FOCAD (focadhesin)	-0.723	1.96	-0.387	-0.85	-0.571
5	SUMO3 (small ubiquitin like modifier 3)	-0.37	2.08	-0.131	-0.553	-0.241
6	HDAC8 (histone deacetylase 8)	-0.0585	1.78	0.0539	0.036	-0.698
7	EBF4 (EBF transcription factor 4)	0.443	2.29	0.275	0.186	0.509
8	IL37 (interleukin 37)	-0.525	2.19	-0.523	-0.555	-0.428
9	CHST9 (carbohydrate sulfotransferase 9)	0.345	3.46	0.107	0.482	0.101
10	CD163L1 (CD163 molecule like 1)	-0.669	2.14	-0.792	-0.54	-0.803
11	HMGN3 (high mobility group nucleosomal binding domain 3)	-0.471	1.32	-0.324	-0.459	-0.493
12	NIPSNAP3A (nipsnap homolog 3A)	-0.19	2.19	-0.158	-0.336	-0.012
13	PCBP4 (poly(rC) binding protein 4)	-0.193	2.99	-0.209	-0.139	-0.347
14	PDE6C (phosphodiesterase 6C)	-0.317	3.75	-0.432	-0.249	-0.269
15	ADCY3 (adenylate cyclase 3)	-0.398	2.83	-0.403	-0.491	-0.317
16	MAPK8IP1 (mitogen-activated protein kinase 8 interacting protein 1)	-0.15	2.54	0.223	-0.0481	-0.557
17	CAMKMT (calmodulin-lysine N-methyltransferase)	0.544	1.85	0.576	0.614	0.438
18	POLDIP2 (DNA polymerase delta interacting protein 2)	-0.358	1.71	-0.123	-0.486	-0.453
19	TACC2 (transforming acidic coiled-coil containing protein 2)	0.0321	2.51	-0.0771	-0.0179	0.106
20	NFKBIZ (NFKB inhibitor zeta)	0.245	2.15	0.597	0.27	0.0328

Laid out differently: 2 of the entries above.
| gene | mean correlation with KSR1 profile | mean distance from KSR1 profile | KSR1 correlation, replicate 1 | KSR1 correlation, replicate 2 | KSR1 correlation, replicate 3 |
| --- | --- | --- | --- | --- | --- |
| HMGN3 (high mobility group nucleosomal binding domain 3) | -0.471 | 1.32 | -0.324 | -0.459 | -0.493 |
| NIPSNAP3A (nipsnap homolog 3A) | -0.19 | 2.19 | -0.158 | -0.336 | -0.012 |
